The source of these data is article PMC4627417.

These are yes or no findings as the source states them, for the method shown. Binding seen in cells or lysates may run through a third protein. A yes stands for co-enrichment or nearness to the bait. Other partners may have been found. Where a sequence is shown, tags or fusion partners need not be part of it.

To fix the notation:
B1: TOP3B (protein, UniProt O95985 1-862)
chain: MKTVLMVAEKPSLAQSIAKILSRGSLSSHKGLNGACSVHEYTGTFAGQPVRFKMTSVCGHVMTLDFLGKYNKWDKVDPAELFSQAPTEKKEANPKLNMVKFLQVEGRGCDYIVLWLDCDKEGENICFEVLDAVLPVMNKAHGGEKTVFRARFSSITDTDICNAMACLGEPDHNEALSVDARQELDLRIGCAFTRFQTKYFQGKYGDLDSSLISFGPCQTPTLGFCVERHDKIQSFKPETYWVLQAKVNTDKDRSLLLDWDRVRVFDREIAQMFLNMTKLEKEAQVEATSRKEKAKQRPLALNTVEMLRVASSSLGMGPQHAMQTAERLYTQGYISYPRTETTHYPENFDLKGSLRQQANHPYWADTVKRLLAEGINRPRKGHDAGDHPPITPMKSATEAELGGDAWRLYEYITRHFIATVSHDCKYLQSTISFRIGPELFTCSGKTVLSPGFTEVMPWQSVPLEESLPTCQRGDAFPVGEVKMLEKQTNPPDYLTEAELITLMEKHGIGTDASIPVHINNICQRNYVTVESGRRLKPTNLGIVLVHGYYKIDAELVLPTIRSAVEKQLNLIAQGKADYRQVLGHTLDVFKRKFHYFVDSIAGMDELMEVSFSPLAATGKPLSRCGKCHRFMKYIQAKPSRLHCSHCDETYTLPQNGTIKLYKELRCPLDDFELVLWSSGSRGKSYPLCPYCYNHPPFRDMKKGMGCNECTHPSCQHSLSMLGIGQCVECESGVLVLDPTSGPKWKVACNKCNVVAHCFENAHRVRVSADTCSVCEAALLDVDFNKAKSPLPGDETQHMGCVFCDPVFQELVELKHAASCHPMHRGGPGRRQGRGRGRARRPPGKPNPRRPKDKMSALAAYFV
B2: NHP2 (protein, UniProt Q9NX24 1-153)
chain: MTKIKADPDGPEAQAEACSGERTYQELLVNQNPIAQPLASRRLTRKLYKCIKKAVKQKQIRRGVKEVQKFVNKGEKGIMVLAGDTLPIEVYCHLPVMCEDRNLPYVYIPSKTDLGAAAGSKRPTCVIMVKPHEEYQEAYDECLEEVQSLPLPL
B3: SFRS15 (protein, UniProt O95104 1-1147)
chain: MDAVNAFNQELFSLMDMKPPISRAKMILITKAAIKAIKLYKHVVQIVEKFIKKCKPEYKVPGLYVIDSIVRQSRHQFGTDKDVFGPRFSKNITATFQYLYLCPSEDKSKIVRVLNLWQKNGVFKIEIIQPLLDMAAGTSNAAPVAENVTNNEGSPPPPVKVSSEPPTQATPNSVPAVPQLPSSDAFAAVAQLFQTTQGQQLQQILQTFQQPPKPQSPALDNAVMAQVQAITAQLKTTPTQPSEQKAAFPPPEQKTAFDKKLLDRFDYDDEPEAVEESKKEDTTAVTTTAPAAAVPPAPTATVPAAAAPAAASPPPPQAPFGFPGDGMQQPAYTQHQNMDQFQPRMMGIQQDPMHHQVPLPPNGQMPGFGLLPTPPFPPMAQPVIPPTPPVQQPFQASFQAQNEPLTQKPHQQEMEVEQPCIQEVKRHMSDNRKSRSRSASRSPKRRRSRSGSRSRRSRHRRSRSRSRDRRRHSPRSRSQERRDREKERERRQKGLPQVKPETASVCSTTLWVGQLDKRTTQQDVASLLEEFGPIESINMIPPRGCAYIVMVHRQDAYRALQKLSRGNYKVNQKSIKIAWALNKGIKADYKQYWDVELGVTYIPWDKVKPEELESFCEGGMLDSDTLNPDWKGIPKKPENEVAQNGGAETSHTEPVSPIPKPLPVPVPPIPVPAPITVPPPQVPPHQPGPPVVGALQPPAFTPPLGIPPPGFGPGVPPPPPPPPFLRPGFNPMHLPPGFLPPGPPPPITPPVSIPPPHTPPISIPNSTIAGINEDTTKDLSIGNPIPTVVSGARGNAESGDSVKMYGSAVPPAAPTNLPTPPVTQPVSLLGTQGVAPGPVIGLQAPSTGLLGARPGLIPLQRPPGMPPPHLQRFPLMPPRPMPPHMMHRGPPPGPGGFAMPPPHGMKGPFPPHGPFVRPGGMPGLGGPGPGPGGPEDRDGRQQPPQQPQQQPQPQAPQQPQQQQQQQPPPSQQPPPTQQQPQQFRNDNRQQFNSGRDQERFGRRSFGNRVENDRERYGNRNDDRDNSNRDRREWGRRSPDRDRHRDLEERNRRSSGHRDRERDSRDRESRREKEEARGKEKPEVTDRAGGNKTVEPPISQVGNVDTASELEKGVSEAAVLKPSEELPAEATSSVEPEKDSGSAAEAPR
B4: RBM42 (protein, UniProt Q9BTD8 1-480)
chain: MAGAGPAPGLPGAGGPVVPGPGAGIPGKSGEERLKEMEAEMALFEQEVLGAPVPGIPTAVPAVPTVPTVPTVEAMQVPAAPVIRPIIATNTYQQVQQTLEARAAAAATVVPPMVGGPPFVGPVGFGPGDRSHLDSPEAREAMFLRRAAVAPQRAPILRPAFVPHVLQRADSALSSAAAGPRPMALRPPHQALVGPPLPGPPGPPMMLPPMARAPGPPLGSMAALRPPLEEPAAPRELGLGLGLGLKEKEEAVVAAAAGLEEASAAVAVGAGGAPAGPAVIGPSLPLALAMPLPEPEPLPLPLEVVRGLLPPLRIPELLSLRPRPRPPRPEPPPGLMALEVPEPLGEDKKKGKPEKLKRCIRTAAGSSWEDPSLLEWDADDFRIFCGDLGNEVNDDILARAFSRFPSFLKAKVIRDKRTGKTKGYGFVSFKDPSDYVRAMREMNGKYVGSRPIKLRKSMWKDRNLDVVRKKQKEKKKLGLR
B5: CSTF1 (protein, UniProt Q05048 1-431)
chain: MYRTKVGLKDRQQLYKLIISQLLYDGYISIANGLINEIKPQSVCAPSEQLLHLIKLGMENDDTAVQYAIGRSDTVAPGTGIDLEFDADVQTMSPEASEYETCYVTSHKGPCRVATYSRDGQLIATGSADASIKILDTERMLAKSAMPIEVMMNETAQQNMENHPVIRTLYDHVDEVTCLAFHPTEQILASGSRDYTLKLFDYSKPSAKRAFKYIQEAEMLRSISFHPSGDFILVGTQHPTLRLYDINTFQCFVSCNPQDQHTDAICSVNYNSSANMYVTGSKDGCIKLWDGVSNRCITTFEKAHDGAEVCSAIFSKNSKYILSSGKDSVAKLWEISTGRTLVRYTGAGLSGRQVHRTQAVFNHTEDYVLLPDERTISLCCWDSRTAERRNLLSLGHNNIVRCIVHSPTNPGFMTCSDDFRARFWYRRSTTD
B6: CSTF3 (protein, UniProt Q12996 1-717)
chain: MSGDGATEQAAEYVPEKVKKAEKKLEENPYDLDAWSILIREAQNQPIDKARKTYERLVAQFPSSGRFWKLYIEAEIKAKNYDKVEKLFQRCLMKVLHIDLWKCYLSYVRETKGKLPSYKEKMAQAYDFALDKIGMEIMSYQIWVDYINFLKGVEAVGSYAENQRITAVRRVYQRGCVNPMINIEQLWRDYNKYEEGINIHLAKKMIEDRSRDYMNARRVAKEYETVMKGLDRNAPSVPPQNTPQEAQQVDMWKKYIQWEKSNPLRTEDQTLITKRVMFAYEQCLLVLGHHPDIWYEAAQYLEQSSKLLAEKGDMNNAKLFSDEAANIYERAISTLLKKNMLLYFAYADYEESRMKYEKVHSIYNRLLAIEDIDPTLVYIQYMKFARRAEGIKSGRMIFKKAREDTRTRHHVYVTAALMEYYCSKDKSVAFKIFELGLKKYGDIPEYVLAYIDYLSHLNEDNNTRVLFERVLTSGSLPPEKSGEIWARFLAFESNIGDLASILKVEKRRFTAFKEEYEGKETALLVDRYKFMDLYPCSASELKALGYKDVSRAKLAAIIPDPVVAPSIVPVLKDEVDRKPEYPKPDTQQMIPFQPRHLAPPGLHPVPGGVFPVPPAAVVLMKLLPPPICFQGPFVQVDELMEIFRRCKIPNTVEEAVRIITGGAPELAVEGNGPVESNAVLTKAVKRPNEDSDEDEEKGAVVPPVHDIYRARQQKRIR

In this experiment the target is 3XMyc-RPRD1B wild type (full length) (human) (UniProt Q9NQG5). Nature of the experiment: affinity purification with mass spectrometry; SILAC: tetracycline-induced 3XMyc-RPRD1B WT (heavy) and MT (light) in 293 Flp-In cells, anti-Myc immunoprecipitates from total lysate combined and analysed by MS.
In the case of B1, the binding entry is reported as “binds”.
The same measure for B2: “binds”.
B3: the binding result is listed as “binds”.
Consider B4, for which the binding entry was “binds”.
The same measure for B5: “binds”.
Consider B6, for which the binding result is given as “binds”.
